Literature values as cited in publication PMC6651381 (Molecules, 2019).
Where two headings read alike, the source gives them in different places. Marks after values point to notes of the source that are not given here.

Tested on: mice
Set-up: method as in PMID 25446027
Details: protective index, i.p., ratio TD50 / ED50, cited from earlier work

SMILES | PI(MES) (listed as R enantiomer) | PI(MES) | PI(MES) (listed as racemate)
Cc1cc(OCCN[C@@H]2CCCC[C@H]2O)ccc1Cl [Compound 1] | 1.72 | 1.722 ^# | –
Cc1cc(OCCNC2CCCCC2O)ccc1Cl (centres unmarked) [Compound 3] | – | 2.839 ^# | 2.83
CCCC(CCC)C(=O)O [VPA, valproate, reference compound] | – | 1.70 ^# | –
